Reference: patent US7390806B2, “Antibiotics containing borinic acid complexes and methods of use” (Anacor Pharmaceuticals, Inc., priority 2002, dated 2008)
Converted amounts (≈) assume the structure as drawn.

Test system: Candida albicans ATCC 90028
Assay: Antifungal in vitro MIC, Candida albicans
Type: cell-based
Settings: ATCC90028, percent inhibition >= 80%

- MIC: 0.25 µg/mL (≈ 0.816 µM)
Structure (SMILES): OC(Cn1cncn1)(Cn1cncn1)c1ccc(F)cc1F [Fluconazole, reference compound]
